Test results from the supplement of paper PMC8007513.
Some of the results follow. Many values rest on one well or one pass, so single values are uncertain.

tested on: Saccharomyces cerevisiae BY4743; assay: growth (OD600) with compound + IPBC relative to untreated control; higher = less growth inhibition; settings: compound concentration: 133 uM; IPBC concentration: 0.5 ug/ml; 20 h
Procedure: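 NMCCC compounds (133 uM) combined with IPBC (0.5 ug/ml) against Saccharomyces cerevisiae BY4743 in YPD, 96-well plates. Growth was read as OD600 at 20 h and expressed as % of the untreated control. Single pass.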

| Structure (SMILES) | growth [%] |
| --- | --- |
| COc1cc(C(=O)Nc2ccccc2OCC2CCCO2)cc(OC)c1OC (stereo not drawn) + CCCCNC(=O)OCC#CI [3-iodo-2-propynyl butylcarbamate (IPBC)] | 101 |
| CC1C\N=C(\NC2=NC=CC=C2C)S1 (stereo not drawn) + CCCCNC(=O)OCC#CI [3-iodo-2-propynyl butylcarbamate (IPBC)] | 81.1 |
| CCCn1c(C)c(C)c(-c2nc3ccccc3[nH]2)c1NC(=O)C(C)C + CCCCNC(=O)OCC#CI [3-iodo-2-propynyl butylcarbamate (IPBC)] | 87 |
| CCOC(=O)c1c(C)[nH]c(C)c1S(=O)(=O)N1CCN(Cc2ccccc2)CC1 + CCCCNC(=O)OCC#CI [3-iodo-2-propynyl butylcarbamate (IPBC)] | 91 |
| CN(Cc1ccco1)C(=O)c1ccc(N2CCCS2(=O)=O)cc1 + CCCCNC(=O)OCC#CI [3-iodo-2-propynyl butylcarbamate (IPBC)] | 108 |
| CN(C)[S](=O)(=O)C/1=C/N(CC(=O)C2=C(C)[N](CC3CCCO3)C(=C2)C)C(=O)/C=C1 (stereo not drawn) + CCCCNC(=O)OCC#CI [3-iodo-2-propynyl butylcarbamate (IPBC)] | 102 |
| COCCN1\C=C(NC(=O)C2=CC3=C(CCC(C3)C(C)(C)C)S2)/C=C\C1=O (stereo not drawn) + CCCCNC(=O)OCC#CI [3-iodo-2-propynyl butylcarbamate (IPBC)] | 113 |
| CC(C)CCNC(=O)CS\C1=N\C2=C(SC=C2)C(=O)N1NC(=O)C3=CC=CC=C3 + CCCCNC(=O)OCC#CI [3-iodo-2-propynyl butylcarbamate (IPBC)] | 87.2 |
